{"sequences": {"note": "By UniProt entry, the sequences of proteins in these tests, tags left out.", "UniProt Q14289": "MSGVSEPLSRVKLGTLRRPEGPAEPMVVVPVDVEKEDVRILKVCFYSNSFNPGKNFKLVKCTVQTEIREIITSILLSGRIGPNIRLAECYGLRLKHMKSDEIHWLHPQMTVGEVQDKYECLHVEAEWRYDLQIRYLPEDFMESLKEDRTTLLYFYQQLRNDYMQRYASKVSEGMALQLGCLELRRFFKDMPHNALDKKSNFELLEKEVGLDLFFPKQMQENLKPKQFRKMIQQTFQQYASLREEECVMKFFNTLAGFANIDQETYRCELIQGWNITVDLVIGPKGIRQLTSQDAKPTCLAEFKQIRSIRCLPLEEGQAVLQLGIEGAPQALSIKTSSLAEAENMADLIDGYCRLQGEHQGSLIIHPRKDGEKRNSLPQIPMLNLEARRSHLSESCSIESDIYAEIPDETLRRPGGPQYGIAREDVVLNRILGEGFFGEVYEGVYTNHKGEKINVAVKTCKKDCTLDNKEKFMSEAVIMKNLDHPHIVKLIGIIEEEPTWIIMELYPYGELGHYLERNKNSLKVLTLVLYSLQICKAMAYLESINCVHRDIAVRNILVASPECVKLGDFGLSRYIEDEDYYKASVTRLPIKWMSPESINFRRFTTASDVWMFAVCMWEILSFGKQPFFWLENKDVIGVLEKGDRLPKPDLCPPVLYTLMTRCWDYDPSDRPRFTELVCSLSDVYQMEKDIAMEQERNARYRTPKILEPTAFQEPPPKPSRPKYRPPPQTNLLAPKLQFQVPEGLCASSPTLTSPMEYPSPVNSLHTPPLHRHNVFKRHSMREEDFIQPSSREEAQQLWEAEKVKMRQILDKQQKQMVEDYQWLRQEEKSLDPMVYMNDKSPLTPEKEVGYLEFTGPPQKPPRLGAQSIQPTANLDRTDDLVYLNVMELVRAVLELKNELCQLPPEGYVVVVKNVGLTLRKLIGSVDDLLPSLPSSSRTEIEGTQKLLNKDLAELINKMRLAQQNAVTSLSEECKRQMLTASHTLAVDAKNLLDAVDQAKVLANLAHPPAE", "UniProt P40763": "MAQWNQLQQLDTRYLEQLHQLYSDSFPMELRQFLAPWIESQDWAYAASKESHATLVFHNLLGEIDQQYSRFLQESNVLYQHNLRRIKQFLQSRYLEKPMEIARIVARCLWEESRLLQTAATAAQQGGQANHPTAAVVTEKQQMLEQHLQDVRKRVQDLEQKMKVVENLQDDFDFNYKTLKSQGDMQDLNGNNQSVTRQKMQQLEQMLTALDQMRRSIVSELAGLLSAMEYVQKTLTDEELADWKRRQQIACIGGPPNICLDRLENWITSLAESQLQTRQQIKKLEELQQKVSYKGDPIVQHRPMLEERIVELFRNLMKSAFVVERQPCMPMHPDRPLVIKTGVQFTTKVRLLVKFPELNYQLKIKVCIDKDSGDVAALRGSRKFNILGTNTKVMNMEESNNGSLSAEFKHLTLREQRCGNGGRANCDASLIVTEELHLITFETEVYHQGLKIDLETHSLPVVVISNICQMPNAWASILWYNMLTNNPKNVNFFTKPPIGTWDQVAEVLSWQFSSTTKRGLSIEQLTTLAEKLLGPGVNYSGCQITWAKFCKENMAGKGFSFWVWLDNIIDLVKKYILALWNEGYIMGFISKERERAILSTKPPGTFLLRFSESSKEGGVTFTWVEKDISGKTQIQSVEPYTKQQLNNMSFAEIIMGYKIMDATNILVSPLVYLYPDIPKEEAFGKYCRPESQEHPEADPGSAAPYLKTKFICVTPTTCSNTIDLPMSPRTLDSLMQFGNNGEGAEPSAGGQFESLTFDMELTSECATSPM"}, "source": "paper PMC12575923", "key": {"[1]": {"target": "FLAG-tagged PTK2B (UniProt Q14289)", "assay": "co-IP; HCT116 cells transiently transfected with FLAG-tagged PTK2B; precipitated with anti-FLAG antibody; blots probed for PTK2B and STAT3"}, "[2]": {"target": "Protein tyrosine kinase 2 beta (PTK2B) (human (endogenous in HCT15 and HCT116)) (UniProt Q14289)", "assay": "co-IP; endogenous PTK2B and STAT3 in HCT15 and HCT116 cells; blots probed for PTK2B and STAT3; the precipitating antibody is not told"}}, "note": "No constants are given. Whether binding was seen depends on the method and setting. Binding seen in cells or lysates may run through a third protein. Some results given as binding are weak or reduced against the parent protein; the word gives no strength."}
{"substance": "STAT3 (from UniProt P40763 1-770)", "values": [{"measurement": "binding", "setting": "[1]", "result": "binds"}, {"measurement": "binding", "setting": "[2]", "result": "binds"}]}
